Values are raw readings; no control value is given beside them.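 Maximum concentrations were near the MIC for antimicrobials, 500 µM for most other compounds, and as high as 1 mM for known inducer-like compounds. Deletion strains began with a tenfold smaller inoculum, and wells with growth under 10% of the overall median counted as non-growing.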
System: Escherichia coli BW25113
Assay: growth (OD600 area under curve, 8 h) (OD600 x h); higher = more growth
Procedure: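 E. coli BW25113 reporter strains (wild type, ΔmarA, ΔsoxS, Δrob, each carrying one of 8 lux reporter plasmids) were grown in 40 µl LB in 384-well plates at 37°C, 800 rpm, with each compound at 4 two-fold concentrations, in biological duplicates. Growth is the baseline-corrected OD600 area under the curve over 8 h (0-8 h WT, 1-9 h deletion strains).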

CC[C@H]1OC(=O)[C@H](C)[C@@H](O[C@H]2C[C@@](C)(OC)[C@@H](O)[C@H](C)O2)[C@H](C)[C@@H](O[C@@H]2O[C@H](C)C[C@H](N(C)C)[C@H]2O)[C@](C)(O)C[C@@H](C)CN(C)[C@H](C)[C@@H](O)[C@]1(C)O [Azithromycin]
growth
Settings	reporter plasmid: EVC	reporter plasmid: acrABp	reporter plasmid: marRABp	reporter plasmid: micFp	reporter plasmid: ompFp	reporter plasmid: robp	reporter plasmid: soxSp	reporter plasmid: tolCp
0.28 µg/ml, genetic background: wild type	3.126	3.04	3.05	2.77	2.98	3.11	2.862	2.7
0.28 µg/ml, genetic background: ΔmarA	2.46	3.46	3.26	3.08	3.27	3.94	3.24	2.61
0.28 µg/ml, genetic background: Δrob	2.88	3.133	3.32	2.46	2.47	2.81	2.85	2.838
0.28 µg/ml, genetic background: ΔsoxS	2.98	3.24	3.21	2.7	3.1	3.08	2.9	2.91
0.56 µg/ml, genetic background: wild type	2.42	2.54	2.49	2.04	2.12	2.36	2.41	2.13
0.56 µg/ml, genetic background: ΔmarA	1.87	2.64	2.39	2.09	2.37	3.08	2.82	1.77
0.56 µg/ml, genetic background: Δrob	2.01	2.13	2.35	1.47	1.42	1.81	2.38	1.9
0.56 µg/ml, genetic background: ΔsoxS	2.05	2.1	2.08	1.91	2.31	2.03	2.08	1.81
1.1 µg/ml, genetic background: wild type	1.83	1.69	1.77	1.27	1.43	1.56	1.85	1.38
1.1 µg/ml, genetic background: ΔmarA	0.951	1.05	0.933	1.18	0.983	1.9	2.37	1.01
1.1 µg/ml, genetic background: Δrob	1.35	1.48	1.46	0.963	0.647	0.873	1.75	1.32
1.1 µg/ml, genetic background: ΔsoxS	1.47	1.48	1.49	1.21	1.45	1.46	1.33	1.14
2.2 µg/ml, genetic background: wild type	0.796	0.336	0.203	0.426	0.139	0.358	0.71	0.556
2.2 µg/ml, genetic background: ΔmarA	0.182	0.0851	0.034	0.14	0.0272	0.259	0.454	0.134
2.2 µg/ml, genetic background: Δrob	0.262	0.158	0.0339	0.0856	0.0557	0.0746	0.339	0.321
2.2 µg/ml, genetic background: ΔsoxS	0.2233	0.191	0.0616	0.0889	0.115	0.0341	0.101	0.251

From the supplement of paper PMC12282887
